Data taken from ChEMBL document CHEMBL1268908, “Design, synthesis, radiolabeling, and in vivo evaluation of carbon-11 labeled N-[2-[4-(3-cyanopyridin-2-yl)piperazin-1-yl]ethyl]-3-methoxybenzamide, a potential positron emission tomography tracer for the dopamine D(4) receptors” (J Med Chem, 2010).
Further values from the same series stand in other lists.

Legend:
Format in all cases: ADME, organism-based, Macaca mulatta
[1] = Biodistribution in rhesus monkey occipital lobe at 150.3 MBq, iv after 13 mins; details: in vivo
[2] = Biodistribution in rhesus monkey retina at 170.3 MBq, iv after 17 mins; details: in vivo
[3] = Biodistribution in rhesus monkey occipital lobe at 150.3 MBq, iv after 19 mins; details: in vivo
[4] = Biodistribution in rhesus monkey entorhinal cortex at 150.3 MBq, iv after 6.5 mins; details: in vivo
[5] = Biodistribution in rhesus monkey occipital lobe at 150.3 MBq, iv after 0.25 mins; details: in vivo, 15 s
[6] = Biodistribution in rhesus monkey occipital lobe at 150.3 MBq, iv after 1.75 mins; details: in vivo, 105 s
[7] = Biodistribution in rhesus monkey retina at 150.3 MBq, iv after 49 mins; details: in vivo
[8] = Biodistribution in rhesus monkey cerebellum at 150.3 MBq, iv after 82.5 mins; details: in vivo, 1.375 h
[9] = Biodistribution in rhesus monkey cerebellum at 150.3 MBq, iv after 19 mins; details: in vivo
[10] = Biodistribution in rhesus monkey cerebellum at 150.3 MBq, iv after 45 mins; details: in vivo, 0.75 h
[11] = Biodistribution in rhesus monkey retina at 150.3 MBq, iv after 4.5 mins; details: in vivo, 0.075 h
[12] = Biodistribution in rhesus monkey occipital lobe at 150.3 MBq, iv after 45 mins; details: in vivo, 0.75 h
[13] = Biodistribution in rhesus monkey entorhinal cortex at 150.3 MBq, iv after 0.25 mins; details: in vivo, 15 s
[14] = Biodistribution in rhesus monkey occipital lobe at 150.3 MBq, iv after 62.5 mins; details: in vivo
[15] = Biodistribution in rhesus monkey retina at 150.3 MBq, iv after 0.75 mins; details: in vivo, 45 s
[16] = Biodistribution in rhesus monkey entorhinal cortex at 150.3 MBq, iv after 72.5 mins; details: in vivo
[17] = Biodistribution in rhesus monkey retina at 150.3 MBq, iv after 1.25 mins; details: in vivo, 75 s
[18] = Biodistribution in rhesus monkey cingulate cortex at 150.3 MBq, iv after 45 mins; details: in vivo, 0.75 h
[19] = Biodistribution in rhesus monkey cerebellum at 150.3 MBq, iv after 87.5 mins; details: in vivo
[20] = Biodistribution in rhesus monkey occipital lobe at 170.3 MBq, iv after 17 mins; details: in vivo
[21] = Biodistribution in rhesus monkey retina at 150.3 MBq, iv after 21 mins; details: in vivo, 0.35 h
[22] = Biodistribution in rhesus monkey retina at 150.3 MBq, iv after 27 mins; details: in vivo, 0.45 h
[23] = Biodistribution in rhesus monkey cingulate cortex at 150.3 MBq, iv after 52.5 mins; details: in vivo, 0.875 h
[24] = Biodistribution in rhesus monkey occipital lobe at 150.3 MBq, iv after 72.5 mins; details: in vivo
[25] = Biodistribution in rhesus monkey retina at 150.3 MBq, iv after 0.25 mins; details: in vivo, 15 s
[26] = Biodistribution in rhesus monkey entorhinal cortex at 150.3 MBq, iv after 8.5 mins; details: in vivo
[27] = Biodistribution in rhesus monkey cingulate cortex at 150.3 MBq, iv after 62.5 mins; details: in vivo
[28] = Biodistribution in rhesus monkey cingulate cortex at 150.3 MBq, iv after 35 mins; details: in vivo
[29] = Biodistribution in rhesus monkey entorhinal cortex at 150.3 MBq, iv after 77.5 mins; details: in vivo
[30] = Biodistribution in rhesus monkey entorhinal cortex at 150.3 MBq, iv after 7.5 mins; details: in vivo, 0.125 h
[31] = Biodistribution in rhesus monkey retina at 150.3 MBq, iv after 43 mins; details: in vivo
[32] = Biodistribution in rhesus monkey entorhinal cortex at 150.3 MBq, iv after 57.5 mins; details: in vivo
[33] = Biodistribution in rhesus monkey retina at 150.3 MBq, iv after 67.5 mins; details: in vivo, 1.125 h
[34] = Biodistribution in rhesus monkey cingulate cortex at 150.3 MBq, iv after 2.75 mins; details: in vivo, 165 s
[35] = Biodistribution in rhesus monkey cerebellum at 150.3 MBq, iv after 52.5 mins; details: in vivo, 0.875 h
[36] = Biodistribution in rhesus monkey entorhinal cortex at 150.3 MBq, iv after 1.25 mins; details: in vivo, 75 s
[37] = Biodistribution in rhesus monkey occipital lobe at 150.3 MBq, iv after 0.75 mins; details: in vivo, 45 s
[38] = Biodistribution in rhesus monkey entorhinal cortex at 150.3 MBq, iv after 82.5 mins; details: in vivo, 1.375 h
[39] = Biodistribution in rhesus monkey cerebellum at 150.3 MBq, iv after 33 mins; details: in vivo, 0.55 h
[40] = Biodistribution in rhesus monkey occipital lobe at 150.3 MBq, iv after 33 mins; details: in vivo, 0.55 h
[41] = Biodistribution in rhesus monkey cingulate cortex at 150.3 MBq, iv after 9.5 mins; details: in vivo
[42] = Biodistribution in rhesus monkey occipital lobe at 150.3 MBq, iv after 57.5 mins; details: in vivo
[43] = Biodistribution in rhesus monkey retina at 150.3 MBq, iv after 1.75 mins; details: in vivo, 105 s
[44] = Biodistribution in rhesus monkey entorhinal cortex at 150.3 MBq, iv after 37 mins; details: in vivo
[45] = Biodistribution in rhesus monkey cingulate cortex at 150.3 MBq, iv after 1.75 mins; details: in vivo, 105 s
[46] = Biodistribution in rhesus monkey cerebellum at 150.3 MBq, iv after 1.75 mins; details: in vivo, 105 s
[47] = Biodistribution in rhesus monkey retina at 150.3 MBq, iv after 39 mins; details: in vivo, 0.65 h
[48] = Biodistribution in rhesus monkey entorhinal cortex at 150.3 MBq, iv after 5.5 mins; details: in vivo
[49] = Biodistribution in rhesus monkey cerebellum at 150.3 MBq, iv after 43 mins; details: in vivo
[50] = Biodistribution in rhesus monkey occipital lobe at 150.3 MBq, iv after 15 mins; details: in vivo, 0.25 h
[51] = Biodistribution in rhesus monkey cerebellum at 150.3 MBq, iv after 67.5 mins; details: in vivo, 1.125 h
[52] = Biodistribution in rhesus monkey entorhinal cortex at 150.3 MBq, iv after 9.5 mins; details: in vivo
[53] = Biodistribution in rhesus monkey entorhinal cortex at 150.3 MBq, iv after 3.5 mins; details: in vivo
[54] = Biodistribution in rhesus monkey entorhinal cortex at 150.3 MBq, iv after 31 mins; details: in vivo
[55] = Biodistribution in rhesus monkey cingulate cortex at 150.3 MBq, iv after 0.75 mins; details: in vivo, 45 s
[56] = Biodistribution in rhesus monkey occipital lobe at 150.3 MBq, iv after 35 mins; details: in vivo
[57] = Biodistribution in rhesus monkey entorhinal cortex at 150.3 MBq, iv after 43 mins; details: in vivo
[58] = Biodistribution in rhesus monkey cingulate cortex at 150.3 MBq, iv after 33 mins; details: in vivo, 0.55 h
[59] = Biodistribution in rhesus monkey cingulate cortex at 150.3 MBq, iv after 43 mins; details: in vivo
[60] = Biodistribution in rhesus monkey retina at 150.3 MBq, iv after 8.5 mins; details: in vivo
[61] = Biodistribution in rhesus monkey retina at 150.3 MBq, iv after 5.5 mins; details: in vivo
[62] = Biodistribution in rhesus monkey occipital lobe at 150.3 MBq, iv after 2.75 mins; details: in vivo, 165 s
[63] = Biodistribution in rhesus monkey cerebellum at 150.3 MBq, iv after 7.5 mins; details: in vivo, 0.125 h
[64] = Biodistribution in rhesus monkey entorhinal cortex at 150.3 MBq, iv after 11 mins; details: in vivo
[65] = Biodistribution in rhesus monkey occipital lobe at 150.3 MBq, iv after 21 mins; details: in vivo, 0.35 h
[66] = Biodistribution in rhesus monkey occipital lobe at 150.3 MBq, iv after 7.5 mins; details: in vivo, 0.125 h
[67] = Biodistribution in rhesus monkey occipital lobe at 150.3 MBq, iv after 47 mins; details: in vivo
[68] = Biodistribution in rhesus monkey retina at 150.3 MBq, iv after 9.5 mins; details: in vivo
[69] = Biodistribution in rhesus monkey occipital lobe at 150.3 MBq, iv after 25 mins; details: in vivo
[70] = Biodistribution in rhesus monkey cingulate cortex at 150.3 MBq, iv after 87.5 mins; details: in vivo
[71] = Biodistribution in rhesus monkey cerebellum at 150.3 MBq, iv after 9.5 mins; details: in vivo
[72] = Biodistribution in rhesus monkey retina at 150.3 MBq, iv after 31 mins; details: in vivo

[11CH3]Oc1cccc(C(=O)NCCN2CCN(c3ncccc3C#N)CC2)c1
Drug uptake [1]: 19.71 kBq/ml
Drug uptake [2]: 52.3201 kBq/ml
Drug uptake [3]: 15.73 kBq/ml
Drug uptake [4]: 36.94 kBq/ml
Drug uptake [5]: 39.79 kBq/ml
Drug uptake [6]: 51.02 kBq/ml
Drug uptake [7]: 55.93 kBq/ml
Drug uptake [8]: 8.2 kBq/ml
Drug uptake [9]: 17.26 kBq/ml
Drug uptake [10]: 10.06 kBq/ml
Drug uptake [11]: 41.39 kBq/ml
Drug uptake [12]: 9.235 kBq/ml
Drug uptake [13]: 26.55 kBq/ml
Drug uptake [14]: 8.641 kBq/ml
Drug uptake [15]: 32.68 kBq/ml
Drug uptake [16]: 8.334 kBq/ml
Drug uptake [17]: 35.23 kBq/ml
Drug uptake [18]: 10.98 kBq/ml
Drug uptake [19]: 7.664 kBq/ml
Drug uptake [20]: 16.62 kBq/ml
Drug uptake [21]: 54.93 kBq/ml
Drug uptake [22]: 56.96 kBq/ml
Drug uptake [23]: 10.77 kBq/ml
Drug uptake [24]: 8.472 kBq/ml
Drug uptake [25]: 19.99 kBq/ml
Drug uptake [26]: 27.02 kBq/ml
Drug uptake [27]: 9.561 kBq/ml
Drug uptake [28]: 12.76 kBq/ml
Drug uptake [29]: 7.835 kBq/ml
Drug uptake [30]: 29.06 kBq/ml
Drug uptake [31]: 57.27 kBq/ml
Drug uptake [32]: 8.599 kBq/ml
Drug uptake [33]: 52.23 kBq/ml
Drug uptake [34]: 47.49 kBq/ml
Drug uptake [35]: 9.47 kBq/ml
Drug uptake [36]: 40.62 kBq/ml
Drug uptake [37]: 61.53 kBq/ml
Drug uptake [38]: 9.189 kBq/ml
Drug uptake [39]: 12.73 kBq/ml
Drug uptake [40]: 11.64 kBq/ml
Drug uptake [41]: 27.2242 kBq/ml
Drug uptake [42]: 8.64 kBq/ml
Drug uptake [43]: 36.64 kBq/ml
Drug uptake [44]: 13.27 kBq/ml
Drug uptake [45]: 54.37 kBq/ml
Drug uptake [46]: 48.2238 kBq/ml
Drug uptake [47]: 56.78 kBq/ml
Drug uptake [48]: 35.22 kBq/ml
Drug uptake [49]: 10.72 kBq/ml
Drug uptake [50]: 17.93 kBq/ml
Drug uptake [51]: 8.418 kBq/ml
Drug uptake [52]: 27.53 kBq/ml
Drug uptake [53]: 38.9 kBq/ml
Drug uptake [54]: 14.86 kBq/ml
Drug uptake [55]: 65.69 kBq/ml
Drug uptake [56]: 10.85 kBq/ml
Drug uptake [57]: 10.13 kBq/ml
Drug uptake [58]: 12.88 kBq/ml
Drug uptake [59]: 10.26 kBq/ml
Drug uptake [60]: 46.01 kBq/ml
Drug uptake [61]: 43.55 kBq/ml
Drug uptake [62]: 40.68 kBq/ml
Drug uptake [63]: 28.6761 kBq/ml
Drug uptake [64]: 24.2 kBq/ml
Drug uptake [65]: 15.93 kBq/ml
Drug uptake [66]: 26.71 kBq/ml
Drug uptake [67]: 9.212 kBq/ml
Drug uptake [68]: 48.45 kBq/ml
Drug uptake [69]: 14.67 kBq/ml
Drug uptake [70]: 9.674 kBq/ml
Drug uptake [71]: 25.93 kBq/ml
Drug uptake [72]: 57.45 kBq/ml
